The supplement of paper PMC8728848
The other results are listed elsewhere or left out.

Columns and labels:
Assay in all cases: glycan array binding signal (z-score within array); higher = stronger binding
Settings in all cases: glycan notation: IUPAC condensed, linker removed
[1] = target: Neu5Ac(a2-6)GlcNAc(b1-4)GlcNAc(b1-4)GlcNAc
Summary of the method: (§1)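 Columns mapping to the same glycan were averaged after glycan names were converted to IUPAC-condensed notation. The data come from 3228 arrays in the Consortium for Functional Glycomics database, limited to those with an available protein sequence. Binding is reported as a within-array Z-score averaged across arrays of one protein sequence and across linkers.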

Neu5Ac(a2-8)Neu5Ac = target: Neu5Ac(a2-8)Neu5Ac
Summary of the method: as §1

[2] = target: Neu5Ac(a2-8)Neu5Ac(a2-3)Gal(b1-3)GalNAc(b1-4)[Neu5Ac(a2-3)]Gal(b1-4)Glc
Summary of the method: as §1

[3] = target: Neu5Ac(a2-8)Neu5Ac(a2-3)Gal(b1-3)GalNAc(b1-4)[Neu5Ac(a2-8)Neu5Ac(a2-3)]Gal(b1-4)Glc
Summary of the method: as §1

[4] = target: Neu5Ac(a2-8)Neu5Ac(a2-3)Gal(b1-4)Glc
Summary of the method: as §1

[5] = target: Neu5Ac(a2-8)Neu5Ac(a2-3)Gal(b1-4)GlcNAc
Summary of the method: as §1

[6] = target: Neu5Ac(a2-8)Neu5Ac(a2-3)[Gal(b1-3)GalNAc(b1-4)]Gal(b1-4)Glc
Summary of the method: as §1

[7] = target: Neu5Ac(a2-8)Neu5Ac(a2-3)[GalNAc(b1-4)]Gal(b1-4)Glc
Summary of the method: as §1

[8] = target: Neu5Ac(a2-8)Neu5Ac(a2-8)Neu5Ac
Summary of the method: as §1

[9] = target: Neu5Ac(a2-8)Neu5Ac(a2-8)Neu5Ac(a2-3)Gal(b1-4)Glc
Summary of the method: as §1

[10] = target: Neu5Ac(a2-8)Neu5Ac(a2-8)Neu5Ac(a2-3)[Gal(b1-3)GalNAc(b1-4)]Gal(b1-4)Glc
Summary of the method: as §1

[11] = target: Neu5Ac(a2-8)Neu5Ac(a2-8)Neu5Ac(a2-3)[GalNAc(b1-4)]Gal(b1-4)Glc
Summary of the method: as §1

[12] = target: Neu5Ac(a2-8)Neu5Ac(a2-8)Neu5Ac(a2-8)Neu5Ac(a2-3)[GalNAc(b1-4)]Gal(b1-4)Glc
Summary of the method: as §1

[13] = target: Neu5Ac(a2-8)Neu5Gc(a2-3)Gal(b1-4)GlcNAc
Summary of the method: as §1

[14] = target: Neu5Ac(b2-6)Gal(b1-4)GlcNAc
Summary of the method: as §1

Neu5Ac(b2-6)GalNAc = target: Neu5Ac(b2-6)GalNAc
Summary of the method: as §1

[15] = target: Neu5Ac9Ac(a2-3)Gal(b1-3)GlcNAc
Summary of the method: as §1

[16] = target: Neu5Ac9Ac(a2-3)Gal(b1-4)GlcNAc
Summary of the method: as §1

[17] = target: Neu5Ac9Ac(a2-6)Gal(b1-4)GlcNAc
Summary of the method: as §1

[18] = target: Neu5Gc(a2-3)Gal(b1-3)GlcNAc
Summary of the method: as §1

[19] = target: Neu5Gc(a2-3)Gal(b1-3)[Fuc(a1-4)]GlcNAc
Summary of the method: as §1

Neu5Gc(a2-3)Gal(b1-4)Glc = target: Neu5Gc(a2-3)Gal(b1-4)Glc
Summary of the method: as §1

[20] = target: Neu5Gc(a2-3)Gal(b1-4)GlcNAc
Summary of the method: as §1

[21] = target: Neu5Gc(a2-3)Gal(b1-4)GlcNAc(b1-3)Gal(b1-4)GlcNAc(b1-2)Man(a1-3)[Neu5Gc(a2-3)Gal(b1-4)GlcNAc(b1-3)Gal(b1-4)GlcNAc(b1-2)Man(a1-6)]Man(b1-4)GlcNAc(b1-4)GlcNAc
Summary of the method: as §1

[22] = target: Neu5Gc(a2-3)Gal(b1-4)[Fuc(a1-3)]GlcNAc
Summary of the method: as §1

[23] = target: Neu5Gc(a2-6)Gal(b1-4)GlcNAc
Summary of the method: as §1

Neu5Gc(a2-6)GalNAc = target: Neu5Gc(a2-6)GalNAc
Summary of the method: as §1

[24] = target: Neu5Gc(a2-8)Neu5Ac(a2-3)Gal(b1-4)GlcNAc
Summary of the method: as §1

[25] = target: Neu5Gc(a2-8)Neu5Gc(a2-3)Gal(b1-4)GlcNAc
Summary of the method: as §1

[26] = target: Neu5Gc(a2-8)Neu5Gc(a2-3)Gal(b1-4)GlcNAc(b1-3)Gal(b1-4)GlcNAc
Summary of the method: as §1

[27] = target: Neu5Gc(a2-8)Neu5Gc(a2-6)Gal(b1-4)GlcNAc
Summary of the method: as §1

[28] = target: Neu5Gc(b2-6)Gal(b1-4)GlcNAc
Summary of the method: as §1

B1: PX14343I-pdi-501-30-501 (Parabacteroides distasonis) (protein)
chain: SDQYSTETFWKTKEHASAGIMGCYNALKLWRSLHTMEFDMLTANAMPYNEANGTQAIGKGEHLSTTALIGSLWKNCYVGIGRTNTFIANVGGVDMDESEKAKMVGEAKFLRAFYYLSLVDKFGGVPLIIDAPNADEQAELPRNSKEEVVNQIVKDLEEAAAVLPDTYASSDLGRATKGAALALKARTLLYNSRWAEAAQAAKQVMESGVYQLFNDYRHFFSEDNKYNCEVIFDIEAKLPEYPTDYDQNIWRLNRPAPLKELVDTYLCVDGKTIEESPLYDPTRPYENRDPRLLKSIVCIGYPYLGKTITKEDVATTGFGVKKYTSYEDDVTIPLVERSAFNFILIRYAEVLLTYAEAQNEASGPDQSVYDAINQLRRRPDINMPEVPKGLTKDQMREVIRRERRIELTFEGLYYSDILRWKTAEKENNGMMHNYEGIEVVKRSFNPKRDYLWPIPYNQTVLNPNLEQNPNWD
With B1 the “glycan array binding signal (z-score)” value [1] was -0.159, the “glycan array binding signal (z-score)” value (Neu5Ac(a2-8)Neu5Ac) was -0.092 and the “glycan array binding signal (z-score)” value [2] was -0.761. The “glycan array binding signal (z-score)” value [3] was -0.169, the “glycan array binding signal (z-score)” value [4] was 0.571 and the “glycan array binding signal (z-score)” value [5] was -0.464. The “glycan array binding signal (z-score)” value [6] was -0.07, the “glycan array binding signal (z-score)” value [7] was 0.193 and the “glycan array binding signal (z-score)” value [8] was -0.602. For the same binder, the “glycan array binding signal (z-score)” value [9] was 0.321, the “glycan array binding signal (z-score)” value [10] was 0.02 and the “glycan array binding signal (z-score)” value [11] was -0.479. The “glycan array binding signal (z-score)” value [12] was -0.145, the “glycan array binding signal (z-score)” value [13] was 18.3 and the “glycan array binding signal (z-score)” value [14] was -0.616. The “glycan array binding signal (z-score)” value (Neu5Ac(b2-6)GalNAc) was -0.163, the “glycan array binding signal (z-score)” value [15] was 0.381 and the “glycan array binding signal (z-score)” value [16] was -0.014. For the same binder, the “glycan array binding signal (z-score)” value [17] was -1.17, the “glycan array binding signal (z-score)” value [18] was -0.548 and the “glycan array binding signal (z-score)” value [19] was -0.573. For the same binder, the “glycan array binding signal (z-score)” value (Neu5Gc(a2-3)Gal(b1-4)Glc) was 0.326, the “glycan array binding signal (z-score)” value [20] was -0.457 and the “glycan array binding signal (z-score)” value [21] was 0.54. For the same binder, the “glycan array binding signal (z-score)” value [22] was -0.212, the “glycan array binding signal (z-score)” value [23] was -0.608 and the “glycan array binding signal (z-score)” value (Neu5Gc(a2-6)GalNAc) was -0.173. For the same binder, the “glycan array binding signal (z-score)” value [24] was 0.394, the “glycan array binding signal (z-score)” value [25] was -0.149 and the “glycan array binding signal (z-score)” value [26] was 0.077. For the same binder, the “glycan array binding signal (z-score)” value [27] was 0.592 and the “glycan array binding signal (z-score)” value [28] was 0.015.
